Construct, isoform or probe ends are uncertain for at least one entry.
How the values were obtained:
[1] = system: AP2XII-4-D1 (AP2-D1) (Neospora caninum Nc1); test: EMSA; settings: signal lost with unlabeled cold probe; LightShift Chemiluminescent EMSA Kit (Thermo) per manufacturer; pH and temperature not stated; recombinant protein; protein details: His, Halo (pET30a)
[2] = system: AP2XII-4-D2 (AP2-D2) (Neospora caninum Nc1); test: EMSA; settings: signal lost with unlabeled cold probe; LightShift Chemiluminescent EMSA Kit (Thermo) per manufacturer; pH and temperature not stated; recombinant protein; protein details: His, Halo (pET30a)

## GGCACTTCTTCAACTGACAACGTAATCA (double strand) [ROP5 promoter probe]
[1]
  binding result: binds
[2]
  binding result: binds

— article PMC11402202
